No constants are given. Whether binding was seen depends on the method and setting. Binding calls can cover weak binding; strength is not graded here.
Biological target: T1, PhoH-like protein domain-containing protein YbeZ (P. aeruginosa) (UniProt Q9HX38)
T1 sequence: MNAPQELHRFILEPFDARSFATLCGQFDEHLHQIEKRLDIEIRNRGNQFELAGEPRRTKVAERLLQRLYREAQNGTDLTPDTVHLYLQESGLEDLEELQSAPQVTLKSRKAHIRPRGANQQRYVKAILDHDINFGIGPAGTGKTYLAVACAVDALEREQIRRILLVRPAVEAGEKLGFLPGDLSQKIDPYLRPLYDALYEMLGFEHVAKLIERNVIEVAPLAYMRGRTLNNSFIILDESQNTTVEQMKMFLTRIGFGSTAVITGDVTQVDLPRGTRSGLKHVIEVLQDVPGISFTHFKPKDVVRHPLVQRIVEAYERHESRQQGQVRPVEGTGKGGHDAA
Experiment: two-hybrid

ribosomal silencing factor RsfS (P. aeruginosa)
binding: binds
